# Test results as given in the supplement of paper PMC4807443.
# Counter-ions that a name gives are not always drawn. Some of the results follow. The numbers are fractions of the control, whatever unit the source prints. Most entries show no effect beyond the scatter of the controls.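 MIN6 is a mouse insulinoma beta-cell line that stably carries a lentiviral reporter in which the Pdx1 and Ins1 promoters each drive a nucleus-targeted fluorescent protein; cells were counted by automated imaging with a Hoechst nuclear stain. In the screen, a drug was a possible hit when its Ins1 promoter readout lay beyond two median absolute deviations from the DMSO controls while Pdx1 activity stayed near normal.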
# System: MIN6
# Assay: % Pdx1+ Ins1+ (double-positive, mature) cells relative to DMSO control (fold of DMSO control); higher = more mature Ins1 promoter-active cells
# Conditions: 8.5 µM; 48 h; glucose 5 mM
row,SMILES,% Pdx1+ Ins1+
1,OC(CCN1CCCCC1)(c1ccccc1)C1CC2C=CC1C2 (centres undefined) [Biperiden hydrochloride],0.91
2,O=C(NCCNCC(O)COc1ccc(O)cc1)N1CCOCC1 (centres undefined) [Xamoterol hemifumarate],0.956
3,CCN(Cc1ccncc1)C(=O)C(CO)c1ccccc1 (centres undefined) [Tropicamide],1.09
4,COc1ccc(C(=O)NCc2cccnc2)cc1C(=O)NCc1cccnc1 [Picotamide monohydrate],1.01
5,NC[C@H]1O[C@H](O[C@H]2[C@H](O[C@@H]3O[C@H](CO)[C@@H](O)[C@H]3O)[C@@H](O)[C@H](N)C[C@@H]2N)[C@H](N)[C@@H](O)[C@@H]1O [Ribostamycin sulfate salt],1.02
6,COc1ccc2[nH]cc(CCNC(C)=O)c2c1 [Melatonin],0.885
7,CC[C@H]1OC(=O)[C@H](C)[C@@H](O[C@H]2C[C@@](C)(OC)[C@@H](O)[C@H](C)O2)[C@H](C)[C@@H](O[C@@H]2O[C@H](C)C[C@H](N(C)C)[C@H]2O)[C@](C)(O)C[C@@H](C)/C(=N\OCOCCOC)[C@H](C)[C@@H](O)[C@]1(C)O [Roxithromycin],0.923
8,COc1c2ccoc2nc2c(OC)c(OCC(O)C(C)(C)O)ccc12 (centres undefined) [Evoxine],0.921
9,Nc1nc(=O)c2nc(CNc3ccc(C(=O)N[C@@H](CCC(=O)O)C(=O)O)cc3)cnc2[nH]1 [Folic acid],0.852
10,CC(=O)N[C@@H](CC(C)C)C(=O)O [N-Acetyl-L-leucine],0.972
11,CC(C)NCC(O)COc1ccc(COCCOC(C)C)cc1 (centres undefined) [Bisoprolol fumarate],1.06
12,Nc1nc(=S)c2ncn([C@@H]3O[C@H](CO)[C@@H](O)[C@H]3O)c2[nH]1 [Thioguanosine],0.512
13,O=c1cc(-c2ccc(O)cc2)oc2cc(O)cc(O)c12 [Apigenin],0.877
14,CO[C@H]1/C=C/O[C@@]2(C)Oc3c(C)c(O)c4c(c3C2=O)C2=NC3(CCN(CC(C)C)CC3)NC2=C(NC(=O)/C(C)=C\C=C\[C@H](C)[C@H](O)[C@@H](C)[C@@H](O)[C@@H](C)[C@H](OC(C)=O)[C@@H]1C)C4=O [Rifabutin],0.926
15,O=C(Cn1ccnc1[N+](=O)[O-])NCCO [Etanidazole],0.833
16,COc1c(O[C@@H]2O[C@H](CO)[C@@H](O)[C@H](O)[C@H]2O)cc2c(c1OC)-c1ccc(SC)c(=O)cc1[C@@H](NC(C)=O)CC2 [Thiocolchicoside],0.937
17,CN(C)CCN(Cc1cccs1)c1ccccn1 [Methapyrilene hydrochloride],0.9

row,SMILES,% Pdx1+ Ins1+
1,NC(=O)N1c2ccccc2C=Cc2ccccc21 [Carbamazepine],1.22
2,Clc1ccc(C(Cn2ccnc2)OCc2c(Cl)cccc2Cl)c(Cl)c1 (centres undefined) [Isoconazole],1.15
3,CC(=O)c1ccc(S(=O)(=O)NC(=O)NC2CCCCC2)cc1 [Acetohexamide],1.06
4,CCCCC[C@H](O)/C=C/[C@@H]1[C@@H](C/C=C\CCCC(=O)O)[C@@H](O)C[C@H]1O [Dinoprost trometamol],0.852
5,COc1ccc(CN(CCN(C)C)c2ccccn2)cc1 [Pyrilamine maleate],1.05
6,CCCNC(C)C(=O)Nc1ccccc1C (centres undefined) [Prilocaine hydrochloride],1.14
7,CC(COc1ccccc1)N(CCCl)Cc1ccccc1 (centres undefined) [Phenoxybenzamine hydrochloride],0.974
8,Cc1cc(=O)oc2cc(O)ccc12 [Hymecromone],0.88
9,CCOC(=O)c1ccc(OC(=O)CCCCCNC(=N)N)cc1 [Gabexate mesilate],0.985
10,c1ccc(C2CN3CCSC3=N2)cc1 (centres undefined) [Tetramisole hydrochloride],0.909
11,C=C1c2cccc(O)c2C(=O)C2=C(O)[C@]3(O)C(=O)C(C(N)=O)=C(O)[C@@H](N(C)C)[C@@H]3[C@@H](O)[C@H]12 [Methacycline hydrochloride],0.979
12,COc1cc2cc3c4cc(OC)c(OC)cc4cc[n+]3c(C)c2cc1OC [Coralyne chloride hydrate],0.894
13,Cn1c(=O)c2nc[nH]c2n(C)c1=O [Theophylline monohydrate],1.07
14,Cc1scc2c1N(C(=O)CN1CCN(C)CC1)c1ccccc1NC2=O [Telenzepine dihydrochloride],1.09
15,CC(C)(C)NC[C@H](O)COc1nsnc1N1CCOCC1 [Timolol maleate salt],0.989
16,NCCCC[C@H](N[C@@H](CCc1ccccc1)C(=O)O)C(=O)N1CCC[C@H]1C(=O)O [Lisinopril],1.13
17,CCOC(=O)OC(C)OC(=O)[C@@H]1N2C(=O)[C@@H](NC(=O)[C@H](N)c3ccccc3)[C@H]2SC1(C)C (some centres undefined) [Bacampicillin hydrochloride],1.06

# Fetched by structure from the list above (2):
row,SMILES,% Pdx1+ Ins1+
1,NC(=O)N1c2ccccc2C=Cc2ccccc21 [Carbamazepine],1.22
12,COc1cc2cc3c4cc(OC)c(OC)cc4cc[n+]3c(C)c2cc1OC [Coralyne chloride hydrate],0.894
